Measurements from US20170290889A1, “METHODS AND COMPOSITIONS FOR TREATING DYSBIOSIS AND GASTROINTESTINAL AND INFLAMMATORY DISORDERS” (New York University, priority 2016, published 2017).

System: gut microbiota
Conditions: Orang Asli stool, post vs pre treatment with Albendazole

## CCCSc1ccc2nc(NC(=O)OC)[nH]c2c1 [albendazole]
  Bacteroidales (Prevotella) abundance by LEfSe: significantly expanded
